Positions count from the first letter of the chain named. In names and notes the source's numbering stands. No constants are given. Whether binding was seen depends on the method and setting. Some results given as binding are weak or reduced against the parent protein; the word gives no strength. For some of these results: Tags and fused reporters may be left off the sequences shown. Values belong to the molecule of their own block, whether it stands above or below them.
Key:
GDF11 [1] = target: T1, GDF11 (UniProt O95390 299-407); experiment: Biacore SPR; ligand amine-coupled to CM5 chip, receptor-Fc injected
T1 construct: also called growth and differentiation factor-11; BMP11
T1 sequence (looked up): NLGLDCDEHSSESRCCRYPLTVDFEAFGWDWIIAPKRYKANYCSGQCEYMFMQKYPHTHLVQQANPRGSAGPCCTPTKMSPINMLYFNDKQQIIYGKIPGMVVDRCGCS

The chains behind the UniProt entries cited, without tags or fusion partners. Where a name states a change or a piece, a line headed by the entry shows the natural chain unless it says otherwise.
UniProt P27037: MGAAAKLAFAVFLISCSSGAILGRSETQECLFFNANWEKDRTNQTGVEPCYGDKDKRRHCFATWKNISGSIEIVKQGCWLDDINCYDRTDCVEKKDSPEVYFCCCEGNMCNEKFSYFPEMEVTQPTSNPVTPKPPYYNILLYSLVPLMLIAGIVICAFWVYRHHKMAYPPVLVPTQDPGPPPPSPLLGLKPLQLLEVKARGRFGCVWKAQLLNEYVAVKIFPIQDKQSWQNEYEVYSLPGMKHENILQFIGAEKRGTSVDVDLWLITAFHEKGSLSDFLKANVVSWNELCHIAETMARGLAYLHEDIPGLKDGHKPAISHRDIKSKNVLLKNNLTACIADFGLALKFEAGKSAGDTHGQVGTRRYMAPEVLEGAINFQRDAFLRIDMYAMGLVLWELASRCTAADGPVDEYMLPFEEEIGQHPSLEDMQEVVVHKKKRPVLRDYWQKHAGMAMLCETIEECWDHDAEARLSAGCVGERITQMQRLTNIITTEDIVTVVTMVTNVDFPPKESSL

GDF11 [2] = target: T1, GDF11; experiment: Biacore SPR; ligand coupled, receptor-Fc flowed over; legend: +++++ = ~40x increased binding
GDF11 [3] = target: T1, GDF11; experiment: Biacore SPR; ligand coupled, receptor-Fc flowed over; legend: - = ~1/2 WT binding

Molecule: ActRIIA-mFc (from UniProt P27037 21-135) (Fc fusion)
binding (GDF11 [1]): binds

B2: Soluble ActRIIB-Fc variant F82A (Fc fusion, UniProt Q13705 19-119, looked up, not shown: a dimerising Fc or GST)
chain: SGRGEAETRECIYYNANWELERTNQSGLERCEGEQDKRLHCYASWANSSGTIELVKKGCWLDDANCYDRQECVATEENPQVYFCCCEGNFCNERFTHLPEA
binding (GDF11 [3]): binds

Results, then the molecule that gave them:

binding (GDF11 [2]): binds
B1: Soluble ActRIIB-Fc variant K74A (second Biacore table of Example 12) (Fc fusion, UniProt Q13705 19-119, looked up, not shown: a dimerising Fc or GST)
chain: B2 chain with K56A, A64F

binding (GDF11 [3]): binds
B3: Soluble ActRIIB-Fc variant R40A (Fc fusion, UniProt Q13705 19-119, looked up, not shown: a dimerising Fc or GST)
chain: B2 chain with R22A, A64F

From patent US20190233486A1 (ACCELERON PHARMA, published 2019)
